Test results reported in PubChem BioAssay AID1729 (National Center for Advancing Translational Sciences (NCATS), 2009).
The shares of active, inactive and inconclusive entries below differ from those in the screen. A potency beside an inconclusive call is a rough fit, not a confirmed value. Calls of active or inactive are those of the source. The call rests on the fitted dose curve; in most records, active means well fitted curve in the direction sought with a large enough effect; inconclusive means small, poorly fitted or top-dose-only effect, or effect the other way, or another doubt; inactive means no such curve, though single readings can be large or run the other way.

The molecules below were run against Epidermal growth factor receptor (Homo sapiens) (UniProt P00533) (assay: Assay for Inhibitors of the ERK Signaling Pathway using a Homogeneous Screening Assay: EGFR T790M Kinase Inhibition). Details: EGFR T790M kinase biochemical inhibition assay; series mostly up to 21.9 µM; activity change, negative = inhibition: at the top concentration.
Text: qHTS Assay for Inhibitors of the ERK Signaling Pathway using a Homogeneous Screening Assay
NIH Chemical Genomics Center [NCGC]
NIH Molecular Libraries Screening Centers Network [MLSCN]
Assay Submitter (PI): Dr. Wei Zheng, NCGC/NIH
The Ras/extracellular-signal-regulated kinase (ERK) mitogen activated protein (MAP) kinase signaling pathway (ERK1/2 cascade) plays is a key role in transmitting signals from the cell surface to the nucleus (Nishida and Gotoh 1993; Chang and Karin, 2001). The cascade is initiated by the small G-protein Ras, which recruits Raf […], where activation occurs. Alternatively, this pathway can be activated by elevating intracellular cAMP.
Activation of the ERK pathway is essential in increased cell division and cell survival. Sustained and constitutive activation of the ERK pathway, however, has been linked to uncontrolled cell proliferation, increased cell survival, and tumor progression. Thus, the ERK has been as an attractive target for cancer chemotherapy in the past few years (Sebolt-Leopold and Herrera, 2004). Given its physiological and pathological importance, assessment of ERK phosphorylation has been broadly performed in both basic research and drug discovery. Most assays for the measurement of ERK phosphorylation use the antibody-based detection methods, such as western blot and ELISA. These assays require multiple reagent additions with cell wash steps and are not suitable for high-throughput screening.
The current cell-based ERK phosphorylation assay was performed using AlphaScreen platform. AlphaScreen is a two bead-based proximity-dependent chemical energy transfer luminescent assay platform. The assay reagents (ERK SureFire(TM) kit) were supplied from TGR BioSciences (Australia). In the presence of specific antibodies, phosphorylated ERK will bring "donor" and "acceptor" beads to a proximity range (<200 nm), and subsequently lead a chemical luminescent reaction upon exciting donor beads with 680 nm laser. To validate pathway hits from the cell-based assay, enzyme assays consisting of EGFR tyrosine kinase, Raf and MEK were used as a means of deciphering the enzymes of target for the prioritized group of compounds derived from the HEK-293 cell based assay. The compounds were tested against significant members of the ERK signaling pathway EGFR and EGFR mutants (EGFR L858R, EGFR T790M, and EGFR L858R T790M). In order to establish the specificity of the prioritized compounds for EGFR and EGFR mutants, the compounds were also assayed against other important ERK signaling pathway enzymes, c-RAF and MEK-1.
NCGC Assay Protocol Summary:
The HTRF kinase assay (components supplied as kit by Cisbio) was chosen for the EGFR and EGFR mutant enzyme assays that applied the time resolved fluorescence resonance energy transfer (TR-FRET) principle. A peptide substrate is labeled with a biotin that can bind to XL665 labeled streptavidin and the anti-phosphoresidue antibody is labeled with Eu+. Upon phosphorylation of the substrate, the antibody binds to phosphorylated substrate that enables TR-FRET detection in homogenous assay format.
An HTRF Kinease TK assay kit (Cisbio, Bedford, MA) was used to develop the EGFR and EGFR mutant assays (Harbert et al., 2008. Harbert C, Marshall J, Soh S, Steger K. Development of a HTRF Kinase Assay for Determination of Syk Activity. Current Chemical Genomics. 1: 20-26. 2008). EGFR and EGFR mutants were obtained from Invitrogen. The assay buffer was composed of 50 mM HEPES (pH 7.0), 5 mM MgCl2, 5mM DTT, 0.1 % NaN3, 0.1 % BSA and 0.1 mM orthovanadate.
The HTRF assays were preformed according to the HTRF Kinease TK kit. Optimization for each enzyme was preformed in 384 well format (data not included). All reagents were dispensed into 1536 well plates.
(1) Enzyme, […] EGFR at 3 nM final
(2) Compound, 22 nl, Library Compounds in 0.128 to 10 mM titration series or control
(3) Reagent, 1.5 ul 10 uM ATP and 0.25 uM substrate final
(4) Incubation for 30 min, Ambient conditions
[…]

| SMILES | activity change, negative = inhibition | Potency |
| --- | --- | --- |
| Fc1ccc(Nc2ncnc3sc4c(c23)CCC4)cc1F | inactive: -2.3% | – |
| O=C1c2ccccc2C(=O)c2c1cccc2N1CCCC1 | – | inconclusive: 28.2 µM [activator, single point] |
| Cc1ccc2nc(=O)c(NNc3ccccc3)cnc2c1 | – | active: 0.355 µM |
| O=C(Nc1nc(-c2ccccc2)cs1)c1ccc(N2CCOCC2)c([N+](=O)[O-])c1 | inactive: -3.77% | – |
| CN(C)c1cccc2c1C(=O)c1ccccc1C2=O | – | inconclusive: 31.6 µM [activator, partial curve] |
| CNc1cccc2c1C(=O)c1ccccc1C2=O | – | inconclusive: 20 µM [activator, partial curve] |
| Cc1nc2ccccc2nc(=O)c1NNc1ccccc1 | – | active: 0.316 µM |
| Cc1ccc(NNc2c(C)nc3ccccc3nc2=O)cc1 | inactive: -13.2% | – |
| Cn1nc(-c2ccccn2)nc2c(=O)n(C)c(=O)nc1-2 | – | inconclusive: 31.6 µM [activator, partial curve] |
| Cn1nc(-c2ccc(Cl)cc2)nc2c(=O)n(C)c(=O)nc1-2 | inactive: 4.21% | – |
| O=C1c2ccccc2C(=O)c2c(NCCCN(CCO)CCO)cccc21 | – | inconclusive: 28.2 µM [activator, partial curve] |

Filtered by structure: those above containing sulfur.

| SMILES | activity change, negative = inhibition | Potency |
| --- | --- | --- |
| Fc1ccc(Nc2ncnc3sc4c(c23)CCC4)cc1F | inactive: -2.3% | – |
| O=C(Nc1nc(-c2ccccc2)cs1)c1ccc(N2CCOCC2)c([N+](=O)[O-])c1 | inactive: -3.77% | – |
